According to patent publication US20210315969A1, “GLYCOPROTEINS HAVING LIPID MOBILIZING PROPERTIES AND THERAPEUTIC USES THEREOF” (Aston University, priority 2008, published 2021):

What was measured:
[1] = ZAG i.v. administration to ob/ob mice, 5 day study (body weight, temperature, plasma metabolites); type: in vivo; details: over the 5 day experiment
Experimental: Animals—Mice—Homozygous obese (ob/ob) mice from the colony maintained at Aston University were used in the present study. The origin and characteristics of Aston ob/ob mice have been previously described. Male mice (20-21 weeks old, weight 90-100 g) were grouped into three per cage in an air conditioned room at 22 ±2° C. with a 12 h-light:12 h-dark cycle and fed a rat and mouse breeding diet (Special Diet Services, Witham, UK) and tap water ad libitum. They were administered ZAG (35 μg) in PBS (100 μl) b.d. by i.v. administration and body weight and food and water intake were monitored daily. Control mice received PBS alone. Body temperature was measured daily by the use of a rectal thermometer (RS Components, Northants, UK). […]
Serum Metabolite Determinations—Non-esterified fatty acids (NEFA) were determined using a Wako-ASC-ACOD kit (Wako Chemical GmbH, Neuss, Germany). Triglycerides were determined using a Triglyceride kit (Sigma Chemical Co., Poole, United Kingdom) and 3-hydroxybutyrate by a quantitative enzymatic determination kit (Sigma). Glucose was measured using a glucose analyser (Beckman, Irvine, Calif.) and glycerol was determined enzymatically using the method of Wieland as described in “Methods of Enzymatic Analysis” (Ed, Bergmeyer, H. U.) Vol. 3, pp1404-1409, published by Academic Press, London (1974).

[2] = Daily i.v. ZAG in mature male Wistar rats for 10 days (body weight, composition, plasma metabolites); type: in vivo; details: during the 10 day study
Experimental: Animals Rais Mature male Wistar rats (one year old from our own colony) weighing 540 ±82.5 g were housed individually and treated once daily i. v., with either ZAG in PBS (100 μl) (50 μg per 100 g body weight), or with PBS (100 μl) as a control. Both food and water intake and body weight were measured daily. Animals were given free access to food (Special Diet Services, Essex, UK) and water ad libitum. The animal experiment was carried out under the welfare conditions imposed by the British Home Office. After 10 days treatment the animals were terminated and the body composition determined. Animals were heated to 80-90° C. for 7 days until constant weight was achieved. The water content was then determined from the difference between the wet and dry weight. Lipids were extracted from the dry carcass using a sequence of chloroform:methanol (1:1), ethanolla.cetone (1:1) and diethyl ether (120 ml of each) as described by Lundholm et al (14). […] The non-fat carcass mass was calculated as the difference between the initial weight of the carcass and the weight of water and fat.
Serum Metabolite Determinations—Non-esterified fatty acids (NEFA) were determined using a Wako-ASC-ACOD kit (Wako Chemical GmbH, Neuss, Germany). Triglycerides were determined using a Triglyceride kit (Sigma Chemical Co., Poole, United Kingdom) and 3-hydroxybutyrate by a quantitative enzymatic determination kit (Sigma). […]

B1: Zinc-α2-glycoprotein (protein, listed as Homo sapiens)
chain: QENQDGRYSLTYIYTGLSKHVEDVPAFQALGSLNDLQFFRYNSKDRKSQPMGLWRQVEGMEDWKEDSQLQKAREDMETLKDIVEYYNDSNGSHVLQGRFGCEIENNRSSGAFWKYYYDGKDYIEFNKEIPAWVPFDPAAQITKQKWEAEPVYVQRAKAYLEEECPATLRKYLKYSKNILDRQDPPSVVVTSHQAPGEKKKLKCLAYDFYPGKIDVHWTRAGQVQEPELRGDVLHNGNGTYQSWVVVAVPPQDTAPYSCHVQHSSLAQPLVVPWEAS
notes: recombinant human Zinc-α2-glycoprotein, lipid mobilizing factor, expressed in HEK293F cells
- food intake [1]: 30 ± 2.5 g
- water intake [1]: 135 ± 3.2 mL
- food intake [2]: 102 ± 32 g
- water intake [2]: 135 ± 35 mL
